Test results published in PMC11722552.
No constants are given. Whether binding was seen depends on the method and setting. Binding seen in cells or lysates may run through a third protein. A result given as binding can be weak or reduced; the word gives no strength.

Protein sequences, listed by entry. Tags and fused reporters are not part of them. Lines headed by an entry give the natural chain unless they say otherwise; changes in a name come on top.
UniProt Q15388: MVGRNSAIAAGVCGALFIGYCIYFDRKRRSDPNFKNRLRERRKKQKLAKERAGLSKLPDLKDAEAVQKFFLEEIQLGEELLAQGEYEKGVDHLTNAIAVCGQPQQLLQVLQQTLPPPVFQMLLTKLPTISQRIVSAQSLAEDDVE
UniProt Q9DCC8: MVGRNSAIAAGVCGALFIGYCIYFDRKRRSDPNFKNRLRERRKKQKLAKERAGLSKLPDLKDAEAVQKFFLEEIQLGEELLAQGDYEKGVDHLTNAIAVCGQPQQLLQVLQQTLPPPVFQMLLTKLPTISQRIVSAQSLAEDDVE
UniProt O75521: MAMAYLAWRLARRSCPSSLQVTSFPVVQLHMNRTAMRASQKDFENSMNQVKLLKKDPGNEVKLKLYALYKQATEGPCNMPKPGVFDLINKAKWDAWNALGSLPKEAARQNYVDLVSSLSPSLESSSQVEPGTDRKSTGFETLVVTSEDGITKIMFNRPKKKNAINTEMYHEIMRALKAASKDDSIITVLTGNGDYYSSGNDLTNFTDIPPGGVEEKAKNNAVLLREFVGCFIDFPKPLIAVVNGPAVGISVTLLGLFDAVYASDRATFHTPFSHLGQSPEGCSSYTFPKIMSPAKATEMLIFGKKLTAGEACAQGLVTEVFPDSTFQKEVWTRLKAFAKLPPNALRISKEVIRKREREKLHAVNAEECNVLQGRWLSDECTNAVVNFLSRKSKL
UniProt Q9WUR2: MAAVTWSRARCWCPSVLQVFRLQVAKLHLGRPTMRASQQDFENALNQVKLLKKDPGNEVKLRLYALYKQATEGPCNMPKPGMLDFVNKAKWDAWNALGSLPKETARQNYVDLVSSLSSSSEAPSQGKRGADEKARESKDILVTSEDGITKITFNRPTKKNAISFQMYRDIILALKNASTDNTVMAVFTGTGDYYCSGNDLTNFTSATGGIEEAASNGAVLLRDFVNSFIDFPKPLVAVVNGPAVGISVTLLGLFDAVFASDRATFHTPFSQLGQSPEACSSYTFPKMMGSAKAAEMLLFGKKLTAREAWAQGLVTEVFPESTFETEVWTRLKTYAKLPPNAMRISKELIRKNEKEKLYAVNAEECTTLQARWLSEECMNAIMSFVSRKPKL

What was measured:
[1] = target: TOMM20 (translocase of the mitochondrial outer membrane complex subunit 20) (human (endogenous in fibroblasts)) (UniProt Q15388); test: proximity ligation; Duolink in situ PLA on fixed, methanol-permeabilised human fibroblasts, endogenous proteins; control compared with patients' fibroblasts, also after GDAP1-Myc transfection or GSH-MEE treatment
[2] = target: TOMM20 (translocase of the mitochondrial outer membrane complex subunit 20) (mouse (endogenous in embryonic motor neurons)) (UniProt Q9DCC8); test: proximity ligation; Duolink in situ PLA on fixed, permeabilised (0.4% Triton X-100) cultured mouse embryonic motor neurons, endogenous proteins; wild-type compared with Gdap1-/-

With “PECI (acyl-coenzyme A-binding domain (ACBD)2/ECI2 isoform A of peroxisomes) (from UniProt O75521)” the binding [1] was “binds”.

In the case of “PECI (acyl-coenzyme A-binding domain (ACBD)2/ECI2 isoform A of peroxisomes) (from UniProt Q9WUR2)”, the binding [2] is reported as “binds”.
